PubChem BioAssay AID1508588 | Peter MacCallum Cancer Centre | 2020

Purpose: 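Which gene losses make BRAF-mutant melanoma cells more responsive to vemurafenib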 (primary screen)
Cells: human WM266.4 melanoma cells (BRAF V600 mutant)
Knock-down reagent: siRNA pool against human genes, 40 nM
Time to read-out: 96 h from transfection to read-out
Challenge: vemurafenib 300 nM (about IC25), added 48 h after transfection, for 48 h; comparison arm got DMSO vehicle only
Read-out: 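Cell gain (DAPI nuclei at end minus before drug, mean of two replicates) and medium lactate by absorbance per cell, both as ratio to non-targeting siRNA, also grouped into fold-change classes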
Direction: cell gain with vemurafenib: higher = more cell gain than with non-targeting siRNA; lactate per cell with vemurafenib: higher = more lactate made per cell
Active means: 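a knock-down counts as enhancing when its fold-change classes with vehicle and with vemurafenib, taken together, show a stronger drug effect on cell gain or lactate per cell; exact class pairs not stated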
Calls: active = enhances vemurafenib effect; inactive = no enhancement seen
In all, the deposit lists about 18,000 reagents; below is a random part of them. 790 of them (4.4%) were called active. 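Calls rest on a combination of fold-change classes in drug and vehicle arms, not all shown here.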 A number with no mark means an inactive call. Reagents against one gene are numbered here. A reagent listed more than once was tested more than once; the source does not tell the runs apart.

gene	pool no.	cell gain with vemurafenib	lactate per cell with vemurafenib
RTL3	1	0.04	4.04
CSAG2	1	0.41	1.4
CSAG2	2	0.25	0.52
H3C7	1	0.31	0.93
ZDHHC19	1	0.67	0.94
HDAC9	1	0.42	1.33
ARHGAP9	1	0.22	1.75
RTN4IP1	1	0.13	2.48
RDH14	1	0.48	0.81
DIS3	1	0.54	0.87
CSN2	1	1.24	0.57
CHTF8	1	0.73	0.78
MED4	1	0.54	0.71
DIRC1	1	0.39	1.06
CLLU1	1	0.63	0.66
SIRPA	1	0.91	1.06
FOXK1	1	0.72	1.75
FUBP1	1	1.04	0.6
WNT7A	1	1.04	1.15
OTUB2	1	0.33	1.71
FAM219A	1	0.91	1.05
TEX10	1	0	1.1
R3HDM1	1	0.44	1.38
TRPC6	1	0.43	0.48
TSPAN6	1	0.57	0.77
RPL14	1	-0.1	1.38
C1QL4	1	0.54	1.09
INPPL1	1	0.57	0.95
KMT2C	1	1.01	0.8
TRPM6	1	0.77	0.43
TRPM6	1	0.49	0.78
B3GNT4	1	0.65	1.09
COL6A5	1	1.15	0.71
TRIM49B	1	0.56	0.64
PTPN20	1	0.79	0.17
PTPN20	2	0.61	0.34
XKRY	1	0.5	1.1
C10orf120	1	0.14 (active)	0.42
RAB4B	1	-0.05	2.16
GPSM3	1	1.18	0.94
DACT2	1	-0.02	1.58
FHIP2A	1	0.34	0.96
NIPSNAP3A	1	0.36	0.52
CDH10	1	0.62	0.41
OCRL	1	0.63	0.54
NR1H2	1	0.34	1.83
ARB2A	1	0.69	0.38
PRSS37	1	1.13	0.8
RCAN3	1	0.72	0.74
FOXO3	1	0.7	0.9
THTPA	1	0.53	0.22
CRCP	1	0.86	0.98
GAPDHS	1	0.12	0.67
PLCB2	1	0.39	0.71
MAP6	1	0.72	1.18
TLK2	1	0.37	1.25
TTLL5	1	0.38	0.3
KAZN	1	0.75	0.74
OR5T2	1	0.78	0.52
OXA1L	1	0.65	0.93
LCLAT1	1	0.95	1.21
RFC4	1	0.48	0.35
POLR1F	1	0.63	1.47
LRRC8D	1	0.8 (active)	0.4
KRTAP9-4	1	0.4	1.63
POU3F4	1	0.23	1.64
PPM1G	1	0.55	1.48
PKN3	1	0.56	1.23
GATAD2A	1	1.07	0.52
OLFML2A	1	0.14	1.36
VCPIP1	1	0.57	0.68
UBQLN2	1	0.55	0.84
GYPB	1	0.29	1.92
GPR61	1	0.73	1.03
NFAM1	1	0.73	0.9
MAP3K15	1	0.63	0.54
AASDHPPT	1	0.48	0.78
MPI	1	0.61	0.87
TMIE	1	0.56	0.55
AMHR2	1	0.47	1.14
OR4D2	1	0.53	0.54
MAP4K5	1	0.73	1
ORC1	1	0.4	0.98
NSUN3	1	1.01	0.84
PRKCZ	1	0.13	1.02
HTR5A	1	0.56 (active)	0.44
DDOST	1	0.87	0.6
SCLY	1	0.76	1.9
APEX2	1	0.23	2.06
LPP	1	0.54	0.49
CPVL	1	0.98	0.58
GPR141	1	0.31	1.29
CA7	1	0.63	0.44
CD163	1	0.53	1.29
FAM153A	1	0.8	0.34
PCNX4	1	0.76	0.7
PLEKHG1	1	0.2	1.54
ARHGAP35	1	0.82	0.69
RGS9	1	0.63	1.53
CAMKK1	1	0.49	1.52
CAMKK1	1	0.31	2.61
CTNNA2	1	0.58	1.42
SLC30A1	1	0.63	0.7
MZT2A	1	0.58	1.19
RBM44	1	0.49	0.7
LST1	1	0.25	2.44
TMTC3	1	1.1	0.85

Called active, of those listed so far:
gene	pool no.	cell gain with vemurafenib	lactate per cell with vemurafenib
C10orf120	1	0.14 (active)	0.42
LRRC8D	1	0.8 (active)	0.4
HTR5A	1	0.56 (active)	0.44
